Assay results as given in article PMC6821256.
Results are given in words; binding and its absence hold for the method and conditions named. Some entries that bind do so weakly or less than the wild type. For part of these data: Where a sequence is shown, tags or fusion partners need not be part of it.

T1: Rec10-E309A (yeast two-hybrid construct) (Schizosaccharomyces pombe) (UniProt Q09823)
T1 sequence: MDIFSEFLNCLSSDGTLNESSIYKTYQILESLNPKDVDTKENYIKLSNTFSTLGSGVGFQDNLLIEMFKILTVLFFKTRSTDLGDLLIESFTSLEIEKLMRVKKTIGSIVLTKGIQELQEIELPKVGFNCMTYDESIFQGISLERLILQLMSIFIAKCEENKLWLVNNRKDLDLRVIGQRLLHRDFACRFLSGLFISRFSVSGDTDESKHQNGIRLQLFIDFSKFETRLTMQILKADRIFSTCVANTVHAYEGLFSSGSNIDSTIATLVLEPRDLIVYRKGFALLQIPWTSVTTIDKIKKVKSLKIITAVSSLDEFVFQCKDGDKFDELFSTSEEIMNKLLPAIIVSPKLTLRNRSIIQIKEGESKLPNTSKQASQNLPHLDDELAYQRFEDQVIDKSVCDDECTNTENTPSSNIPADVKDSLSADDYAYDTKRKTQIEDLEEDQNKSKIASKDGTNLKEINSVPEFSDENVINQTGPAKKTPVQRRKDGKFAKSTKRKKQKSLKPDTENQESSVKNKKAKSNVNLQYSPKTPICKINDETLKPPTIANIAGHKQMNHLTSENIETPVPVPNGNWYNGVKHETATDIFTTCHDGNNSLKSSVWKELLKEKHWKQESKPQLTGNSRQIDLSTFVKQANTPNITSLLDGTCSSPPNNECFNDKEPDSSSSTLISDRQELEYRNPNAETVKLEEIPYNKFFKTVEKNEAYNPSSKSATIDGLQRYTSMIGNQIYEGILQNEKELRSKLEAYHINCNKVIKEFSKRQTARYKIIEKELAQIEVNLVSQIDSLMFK

T2: Rec15 full-length (FL, 1-180; yeast two-hybrid construct) (Schizosaccharomyces pombe) (UniProt Q09094)
T2 sequence: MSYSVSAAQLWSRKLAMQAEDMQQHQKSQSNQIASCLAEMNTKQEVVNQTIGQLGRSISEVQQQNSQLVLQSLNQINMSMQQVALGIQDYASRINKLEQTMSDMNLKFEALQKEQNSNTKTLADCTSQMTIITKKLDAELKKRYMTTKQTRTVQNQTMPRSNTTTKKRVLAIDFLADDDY

T3: Rec10 (yeast two-hybrid construct) (Schizosaccharomyces pombe) (UniProt Q09823)
T3 sequence: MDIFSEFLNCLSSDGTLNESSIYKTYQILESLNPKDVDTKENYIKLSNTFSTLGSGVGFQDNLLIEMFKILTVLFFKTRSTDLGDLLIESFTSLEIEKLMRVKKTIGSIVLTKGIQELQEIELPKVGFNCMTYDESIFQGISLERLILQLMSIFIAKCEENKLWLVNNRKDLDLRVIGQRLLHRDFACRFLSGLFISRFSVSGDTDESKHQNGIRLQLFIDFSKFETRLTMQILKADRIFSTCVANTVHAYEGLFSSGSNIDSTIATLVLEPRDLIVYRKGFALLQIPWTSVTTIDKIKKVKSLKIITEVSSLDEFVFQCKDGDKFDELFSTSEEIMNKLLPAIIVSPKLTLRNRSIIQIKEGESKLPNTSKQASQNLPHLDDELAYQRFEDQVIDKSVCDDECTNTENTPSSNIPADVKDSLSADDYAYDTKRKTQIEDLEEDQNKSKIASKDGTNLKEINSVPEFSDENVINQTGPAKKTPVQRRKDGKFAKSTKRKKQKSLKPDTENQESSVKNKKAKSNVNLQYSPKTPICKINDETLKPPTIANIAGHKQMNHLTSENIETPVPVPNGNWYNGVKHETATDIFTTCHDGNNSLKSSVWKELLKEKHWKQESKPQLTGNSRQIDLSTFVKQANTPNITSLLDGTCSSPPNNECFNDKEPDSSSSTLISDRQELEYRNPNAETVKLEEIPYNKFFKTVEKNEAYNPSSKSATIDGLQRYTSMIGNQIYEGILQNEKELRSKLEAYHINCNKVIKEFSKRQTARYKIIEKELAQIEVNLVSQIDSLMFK

T4: Mde2 (yeast two-hybrid construct) (Schizosaccharomyces pombe) (UniProt P87309)
T4 sequence: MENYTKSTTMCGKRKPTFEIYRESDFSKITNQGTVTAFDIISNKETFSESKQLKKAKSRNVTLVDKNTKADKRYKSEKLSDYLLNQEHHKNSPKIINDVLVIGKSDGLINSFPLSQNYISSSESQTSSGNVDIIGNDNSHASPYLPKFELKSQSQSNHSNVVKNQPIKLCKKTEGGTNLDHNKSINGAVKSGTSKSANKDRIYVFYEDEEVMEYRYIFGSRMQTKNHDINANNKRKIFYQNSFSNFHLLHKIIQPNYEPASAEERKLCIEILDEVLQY


Experiments:
[1] = biological target: T1, Rec10-E309A (yeast two-hybrid construct) (Schizosaccharomyces pombe); experiment: yeast three-hybrid; S. cerevisiae Y190, bait Rec10 and prey Rec15 (pGADT7, pGBKT7) with pADE1 expressing wild-type Hop1 under pTDH3; growth on SD w/o LWAH + 10 mM 3-AT, 5 days at 30°C
[2] = biological target: T2, Rec15 full-length (FL, 1-180; yeast two-hybrid construct) (Schizosaccharomyces pombe); experiment: as above
[3] = biological target: T3, Rec10 (yeast two-hybrid construct) (Schizosaccharomyces pombe); experiment: yeast three-hybrid; S. cerevisiae Y190, bait Rec10 and prey Rec15 (pGADT7, pGBKT7) with the empty pADE1 (no Hop1); growth on SD w/o LWAH + 10 mM 3-AT, 5 days at 30°C
[4] = biological target: T3, Rec10 (yeast two-hybrid construct) (Schizosaccharomyces pombe); experiment: two-hybrid; S. cerevisiae AH109, pGADT7 and pGBKT7 plasmids; growth on SD without leucine, tryptophan, histidine and adenine, 5 days at 30°C
[5] = biological target: T4, Mde2 (yeast two-hybrid construct) (Schizosaccharomyces pombe); experiment: as above
[6] = biological target: T2, Rec15 full-length (FL, 1-180; yeast two-hybrid construct) (Schizosaccharomyces pombe); experiment: as above

binding [1]	binding [2]	binding [3]	binding [4]	binding [5]	binding [6]	Binder
binds	binds	–	–	–	–	Hop1 expressed from pADE1 (third protein of the yeast three-hybrid assay) (protein, UniProt Q9P7P2 1-528) MNSYKEEILQTKSDFTLKNLIFFAISTLCYKRALFNENCYKKVNFEIEHFKGADFDCQLKPTVVSLQAGVDKEADSFLEMMKTYIFSLVSMKVPFTVYLIISSQCKSILEDDAVEKEIFSFTINPGSEEKICCESFVSYQRSERFVIKLFLSGNVKTECKDEEKVVQIITKMERFQLSKGEATKAGVFLNTVETKDCMSWLNRGEFKDIVSFYESNNGIAISHCSHAFVPISTEKIMINKESSLFDSQEKIDSQLEKFLQPLKYDEIGSTQILDEQSVEKSLSQGKCEKMQNESRGLREIKNNNPCEEVKKSNWLKKNISGSDKVDKAEKKKALLNCECGDSTEDSEMFQCERCDGWVHCACYGFESDSDPRQPNQLLCYTCLLVDSESSLYDRMTMLVAYRRAIRCIWASEYQGFQKLAARLNCSYADAKRIEERLVNENIIYKEKKRKWIYFTNKSPEMVSYLREKYFTPSRWISHLNFQNYRQENQRVNMRSFLRPERMEVIERPKKVSKTSNTKETDTMKPLRI
–	–	binds	binds	binds	binds	Rec15 full-length (FL, 1-180; yeast two-hybrid construct) (protein, UniProt Q09094 1-180) MSYSVSAAQLWSRKLAMQAEDMQQHQKSQSNQIASCLAEMNTKQEVVNQTIGQLGRSISEVQQQNSQLVLQSLNQINMSMQQVALGIQDYASRINKLEQTMSDMNLKFEALQKEQNSNTKTLADCTSQMTIITKKLDAELKKRYMTTKQTRTVQNQTMPRSNTTTKKRVLAIDFLADDDY
